We go through one sequence from patent publication US20240040982, “CEREAL GRAIN WITH THICKENED ALEURONE” (Commonwealth Scientific and Industrial Research Organisation, published 2024).

Weaker means in comparison with the reference protein, sequence or condition of that experiment. Protein sequences can lack the tags named with them.

For this series, the system named is T1, ta1-1 I truncated TA1 (Oryza sativa).
T1 sequence (limits assumed): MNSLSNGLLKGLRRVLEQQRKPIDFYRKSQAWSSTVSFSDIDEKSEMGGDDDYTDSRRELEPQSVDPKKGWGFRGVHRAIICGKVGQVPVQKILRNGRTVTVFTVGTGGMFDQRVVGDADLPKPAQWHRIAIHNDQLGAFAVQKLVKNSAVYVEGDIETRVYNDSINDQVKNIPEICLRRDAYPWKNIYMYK
Briefly: EMSA. The conditions noted are these: 8 ug mutant gives shift similar to 2 ug wild type; purified recombinant protein; protein details: N-terminal 6xHis, expressed in E. coli; label: 3' biotin (biotinylated CTP); single-stranded DNA. For orientation: Mobility shift assays separate free from complexed probe on a gel.

On to “ACTCCCTCTCCCTTGCGGATTCGAATGGTAGTACATTCTCTTCGA [45-nt EMSA ssDNA probe]”, for which the binding result is recorded as “binds more weakly”.
